Values of other authors, collected in US20250375427A1 (Biohaven Therapeutics Ltd., priority 2022, published 2025).

Conditions: cited from earlier work

## Nc1nc2ccc(OC(F)(F)F)cc2s1 [Riluzole, riluzole]
Riluzole tablets
  bioavailability: approximately 60%
Taken with meals
  food effect on absorption: reduced absorption when it is taken with meals
